Laboratory results from the supplement of paper PMC10849652.
Some of the results follow.

Chains of the proteins cited; added tags and fusions are not shown. Lines headed by an entry give the natural chain unless they say otherwise; changes in a name come on top.
UniProt Q13547, whole entry, looked up: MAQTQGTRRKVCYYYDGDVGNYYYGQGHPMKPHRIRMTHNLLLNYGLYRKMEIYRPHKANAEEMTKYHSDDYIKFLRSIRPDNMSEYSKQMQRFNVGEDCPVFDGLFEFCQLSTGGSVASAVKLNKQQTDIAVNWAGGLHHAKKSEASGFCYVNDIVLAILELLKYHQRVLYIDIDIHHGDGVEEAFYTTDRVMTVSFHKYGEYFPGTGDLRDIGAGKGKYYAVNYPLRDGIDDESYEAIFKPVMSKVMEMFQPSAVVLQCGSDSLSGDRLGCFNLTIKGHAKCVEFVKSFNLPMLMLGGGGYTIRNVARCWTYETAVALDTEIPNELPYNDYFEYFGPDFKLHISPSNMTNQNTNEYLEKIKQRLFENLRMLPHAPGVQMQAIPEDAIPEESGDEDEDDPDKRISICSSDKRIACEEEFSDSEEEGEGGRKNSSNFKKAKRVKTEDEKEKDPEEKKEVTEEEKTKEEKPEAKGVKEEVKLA
UniProt P00390: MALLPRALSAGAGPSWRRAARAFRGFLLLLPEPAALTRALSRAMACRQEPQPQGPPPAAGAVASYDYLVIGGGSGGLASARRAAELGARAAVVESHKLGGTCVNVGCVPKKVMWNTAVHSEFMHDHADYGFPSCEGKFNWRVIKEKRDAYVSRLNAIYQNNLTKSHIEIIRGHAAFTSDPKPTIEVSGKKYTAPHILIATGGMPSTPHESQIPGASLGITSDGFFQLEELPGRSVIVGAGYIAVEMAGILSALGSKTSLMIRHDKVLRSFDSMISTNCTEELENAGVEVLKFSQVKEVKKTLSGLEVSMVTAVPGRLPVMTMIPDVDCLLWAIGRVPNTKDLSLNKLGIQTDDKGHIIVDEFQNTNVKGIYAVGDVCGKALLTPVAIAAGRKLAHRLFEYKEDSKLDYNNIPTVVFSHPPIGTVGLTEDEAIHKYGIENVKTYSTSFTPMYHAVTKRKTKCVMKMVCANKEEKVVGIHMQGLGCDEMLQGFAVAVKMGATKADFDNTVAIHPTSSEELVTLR
UniProt Q13888: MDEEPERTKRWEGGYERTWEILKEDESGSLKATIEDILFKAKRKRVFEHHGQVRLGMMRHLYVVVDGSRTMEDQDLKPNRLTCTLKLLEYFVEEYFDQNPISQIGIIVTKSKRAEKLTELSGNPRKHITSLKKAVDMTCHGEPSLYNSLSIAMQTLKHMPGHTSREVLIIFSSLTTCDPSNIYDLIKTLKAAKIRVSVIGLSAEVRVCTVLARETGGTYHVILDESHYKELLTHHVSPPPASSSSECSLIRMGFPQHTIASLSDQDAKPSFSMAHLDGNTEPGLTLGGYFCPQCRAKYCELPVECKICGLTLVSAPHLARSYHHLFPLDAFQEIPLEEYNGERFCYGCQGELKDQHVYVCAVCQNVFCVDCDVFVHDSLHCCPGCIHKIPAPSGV
UniProt Q8NEC7: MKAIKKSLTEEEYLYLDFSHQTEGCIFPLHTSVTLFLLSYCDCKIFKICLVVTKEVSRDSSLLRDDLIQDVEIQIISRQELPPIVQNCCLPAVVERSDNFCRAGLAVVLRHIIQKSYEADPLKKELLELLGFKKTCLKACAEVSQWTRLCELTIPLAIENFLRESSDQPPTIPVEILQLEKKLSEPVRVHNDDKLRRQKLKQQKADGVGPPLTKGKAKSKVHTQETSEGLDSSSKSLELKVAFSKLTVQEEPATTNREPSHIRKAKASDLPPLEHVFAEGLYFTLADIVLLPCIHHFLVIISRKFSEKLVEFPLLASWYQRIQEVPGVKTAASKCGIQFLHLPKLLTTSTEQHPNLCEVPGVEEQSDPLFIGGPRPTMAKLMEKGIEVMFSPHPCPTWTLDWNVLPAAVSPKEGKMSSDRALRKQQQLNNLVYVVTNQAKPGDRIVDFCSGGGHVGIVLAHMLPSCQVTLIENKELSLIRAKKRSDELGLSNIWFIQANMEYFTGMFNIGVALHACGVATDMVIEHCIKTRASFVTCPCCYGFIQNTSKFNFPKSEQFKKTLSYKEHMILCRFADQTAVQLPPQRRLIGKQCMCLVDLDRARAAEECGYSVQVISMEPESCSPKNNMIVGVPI
UniProt Q9P035: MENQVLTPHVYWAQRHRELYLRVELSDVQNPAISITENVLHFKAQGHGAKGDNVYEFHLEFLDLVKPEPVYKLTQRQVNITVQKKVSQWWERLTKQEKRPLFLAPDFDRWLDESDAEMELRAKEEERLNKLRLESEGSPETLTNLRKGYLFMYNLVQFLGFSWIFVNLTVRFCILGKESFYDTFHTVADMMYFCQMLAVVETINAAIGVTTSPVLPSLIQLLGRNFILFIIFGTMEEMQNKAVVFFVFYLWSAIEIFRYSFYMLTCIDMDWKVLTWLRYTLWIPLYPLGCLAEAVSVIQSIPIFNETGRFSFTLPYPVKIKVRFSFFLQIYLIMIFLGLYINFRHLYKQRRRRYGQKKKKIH
UniProt Q8WUI4: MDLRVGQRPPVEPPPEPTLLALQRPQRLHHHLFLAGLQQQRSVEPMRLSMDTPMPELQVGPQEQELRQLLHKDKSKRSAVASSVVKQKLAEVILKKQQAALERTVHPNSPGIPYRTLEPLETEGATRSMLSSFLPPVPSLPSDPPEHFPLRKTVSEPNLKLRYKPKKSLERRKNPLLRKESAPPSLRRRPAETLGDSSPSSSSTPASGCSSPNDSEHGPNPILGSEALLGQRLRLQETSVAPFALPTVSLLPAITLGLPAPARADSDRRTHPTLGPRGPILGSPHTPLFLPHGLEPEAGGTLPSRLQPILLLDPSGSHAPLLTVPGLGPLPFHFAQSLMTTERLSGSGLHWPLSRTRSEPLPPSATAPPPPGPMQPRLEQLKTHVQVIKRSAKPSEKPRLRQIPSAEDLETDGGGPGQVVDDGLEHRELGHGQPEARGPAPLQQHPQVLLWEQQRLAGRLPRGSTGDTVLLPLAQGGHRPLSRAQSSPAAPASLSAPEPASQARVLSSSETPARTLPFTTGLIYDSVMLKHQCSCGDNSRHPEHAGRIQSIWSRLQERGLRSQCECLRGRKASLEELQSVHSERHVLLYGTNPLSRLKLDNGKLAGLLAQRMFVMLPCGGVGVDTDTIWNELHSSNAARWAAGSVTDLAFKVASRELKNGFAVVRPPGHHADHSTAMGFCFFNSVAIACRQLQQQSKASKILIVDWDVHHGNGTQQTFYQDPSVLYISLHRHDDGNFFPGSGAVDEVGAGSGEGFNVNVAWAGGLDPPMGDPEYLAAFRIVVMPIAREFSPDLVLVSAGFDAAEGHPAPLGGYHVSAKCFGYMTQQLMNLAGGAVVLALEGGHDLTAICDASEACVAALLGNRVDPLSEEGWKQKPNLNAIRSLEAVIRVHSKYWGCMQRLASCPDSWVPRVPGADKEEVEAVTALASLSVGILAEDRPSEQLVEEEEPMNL
UniProt P52655, whole entry, looked up: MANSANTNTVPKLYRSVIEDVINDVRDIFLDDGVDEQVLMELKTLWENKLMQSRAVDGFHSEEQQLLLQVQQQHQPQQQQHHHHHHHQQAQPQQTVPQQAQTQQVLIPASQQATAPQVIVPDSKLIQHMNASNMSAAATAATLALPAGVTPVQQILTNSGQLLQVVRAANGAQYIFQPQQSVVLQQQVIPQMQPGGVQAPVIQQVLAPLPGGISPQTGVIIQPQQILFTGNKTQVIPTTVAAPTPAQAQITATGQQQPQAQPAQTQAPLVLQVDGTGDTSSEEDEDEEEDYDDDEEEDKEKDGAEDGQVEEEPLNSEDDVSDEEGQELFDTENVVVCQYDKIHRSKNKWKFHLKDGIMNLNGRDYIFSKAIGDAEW
UniProt P16402, whole entry, looked up: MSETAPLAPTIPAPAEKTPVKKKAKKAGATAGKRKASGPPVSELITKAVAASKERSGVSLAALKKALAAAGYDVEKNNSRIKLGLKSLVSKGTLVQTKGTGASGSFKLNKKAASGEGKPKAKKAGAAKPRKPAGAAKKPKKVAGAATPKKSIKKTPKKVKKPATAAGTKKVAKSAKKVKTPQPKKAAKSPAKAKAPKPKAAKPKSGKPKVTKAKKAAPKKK
UniProt Q9P0R6: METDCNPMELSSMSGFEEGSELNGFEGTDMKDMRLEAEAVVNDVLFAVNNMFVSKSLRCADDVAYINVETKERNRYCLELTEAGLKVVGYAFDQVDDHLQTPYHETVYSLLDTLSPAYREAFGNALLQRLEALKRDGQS
UniProt Q5T447: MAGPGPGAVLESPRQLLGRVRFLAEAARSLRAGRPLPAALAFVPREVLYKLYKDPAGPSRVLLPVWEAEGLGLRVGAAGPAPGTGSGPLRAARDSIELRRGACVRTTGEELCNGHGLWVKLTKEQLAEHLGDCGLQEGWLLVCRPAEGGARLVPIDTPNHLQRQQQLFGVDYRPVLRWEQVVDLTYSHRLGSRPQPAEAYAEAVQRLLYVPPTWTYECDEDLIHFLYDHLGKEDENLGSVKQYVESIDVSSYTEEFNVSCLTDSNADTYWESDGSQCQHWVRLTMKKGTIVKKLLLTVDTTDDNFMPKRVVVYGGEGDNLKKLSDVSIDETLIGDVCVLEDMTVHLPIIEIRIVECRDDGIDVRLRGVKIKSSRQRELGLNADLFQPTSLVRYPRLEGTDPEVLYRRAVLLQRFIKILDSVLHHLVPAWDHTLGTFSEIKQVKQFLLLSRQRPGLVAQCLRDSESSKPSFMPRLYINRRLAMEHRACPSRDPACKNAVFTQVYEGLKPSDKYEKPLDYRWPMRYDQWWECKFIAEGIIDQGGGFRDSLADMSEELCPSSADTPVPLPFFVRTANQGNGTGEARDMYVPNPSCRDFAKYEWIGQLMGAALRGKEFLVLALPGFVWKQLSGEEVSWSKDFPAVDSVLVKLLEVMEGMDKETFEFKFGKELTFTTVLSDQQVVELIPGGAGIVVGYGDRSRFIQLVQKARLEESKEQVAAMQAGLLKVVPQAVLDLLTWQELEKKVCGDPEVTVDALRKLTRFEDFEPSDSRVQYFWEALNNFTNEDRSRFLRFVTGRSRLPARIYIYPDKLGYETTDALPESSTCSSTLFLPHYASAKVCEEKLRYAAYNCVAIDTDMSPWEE
UniProt P02008: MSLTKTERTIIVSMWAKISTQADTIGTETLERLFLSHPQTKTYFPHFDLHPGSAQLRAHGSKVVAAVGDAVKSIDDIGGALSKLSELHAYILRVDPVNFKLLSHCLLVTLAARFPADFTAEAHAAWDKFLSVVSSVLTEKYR
UniProt P49590: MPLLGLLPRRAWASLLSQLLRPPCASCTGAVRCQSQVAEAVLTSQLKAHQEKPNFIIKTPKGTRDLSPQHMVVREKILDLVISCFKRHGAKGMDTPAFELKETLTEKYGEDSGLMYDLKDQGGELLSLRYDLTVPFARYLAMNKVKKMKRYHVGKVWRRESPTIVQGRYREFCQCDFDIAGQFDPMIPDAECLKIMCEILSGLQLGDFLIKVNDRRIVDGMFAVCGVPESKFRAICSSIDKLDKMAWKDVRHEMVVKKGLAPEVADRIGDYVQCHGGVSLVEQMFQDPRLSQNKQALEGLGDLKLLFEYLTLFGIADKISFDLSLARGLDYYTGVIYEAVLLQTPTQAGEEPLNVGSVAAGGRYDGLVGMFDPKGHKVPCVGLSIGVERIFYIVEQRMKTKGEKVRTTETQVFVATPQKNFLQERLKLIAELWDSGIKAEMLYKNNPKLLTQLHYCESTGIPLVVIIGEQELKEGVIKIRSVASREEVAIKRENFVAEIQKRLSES
UniProt Q68CZ6: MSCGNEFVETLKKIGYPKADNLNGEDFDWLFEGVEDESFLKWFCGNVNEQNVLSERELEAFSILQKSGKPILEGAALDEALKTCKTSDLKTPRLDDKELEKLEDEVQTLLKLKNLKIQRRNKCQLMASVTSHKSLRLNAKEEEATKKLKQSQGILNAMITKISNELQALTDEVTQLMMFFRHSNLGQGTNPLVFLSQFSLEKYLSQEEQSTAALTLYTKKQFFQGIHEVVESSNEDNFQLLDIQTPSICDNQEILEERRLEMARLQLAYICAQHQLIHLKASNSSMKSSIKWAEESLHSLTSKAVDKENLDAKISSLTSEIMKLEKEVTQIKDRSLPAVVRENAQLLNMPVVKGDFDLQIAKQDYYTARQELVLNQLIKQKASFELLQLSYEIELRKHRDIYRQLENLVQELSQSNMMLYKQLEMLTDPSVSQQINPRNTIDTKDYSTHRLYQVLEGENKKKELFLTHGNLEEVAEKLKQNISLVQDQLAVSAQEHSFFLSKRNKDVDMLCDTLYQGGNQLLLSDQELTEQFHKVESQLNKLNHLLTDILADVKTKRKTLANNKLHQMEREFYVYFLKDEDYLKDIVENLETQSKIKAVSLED
UniProt O75367, whole entry, looked up: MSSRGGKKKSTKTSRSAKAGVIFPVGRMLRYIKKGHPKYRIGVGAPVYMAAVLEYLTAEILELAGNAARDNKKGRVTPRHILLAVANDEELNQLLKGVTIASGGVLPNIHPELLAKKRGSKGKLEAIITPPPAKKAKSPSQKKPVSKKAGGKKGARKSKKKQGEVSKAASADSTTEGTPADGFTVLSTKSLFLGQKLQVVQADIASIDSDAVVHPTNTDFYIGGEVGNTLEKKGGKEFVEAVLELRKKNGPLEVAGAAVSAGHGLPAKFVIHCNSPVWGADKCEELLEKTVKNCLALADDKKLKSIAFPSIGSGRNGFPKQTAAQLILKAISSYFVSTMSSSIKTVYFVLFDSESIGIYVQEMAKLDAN

Legend:
Assay in all cases: log2 fold change, soluble protein after heating vs DMSO (PISA); higher = thermal stabilisation; K562 cells, 10 uM, 30 min; active = over 0.2 and 3.5 SD of the protein, either way, in both replicates (recomputed)
erlotinib = compound: C#Cc1cccc(Nc2ncnc3cc(OCCOC)c(OCCOC)cc23)c1 [erlotinib]
Summary of the method: (§1)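 K562 cells at 2×10^6 cells/mL were exposed to 10 μM compound for 30 min, then aliquots were heated for 3 min across 48°C-58°C, pooled, and extracted in PBS containing 0.5% NP-40 at 4°C. The supernatant after 21,000xg for 90 min was taken as soluble protein and measured by TMTpro 16plex LC-MS/MS with channel sums equalised. Thermal stability is reported relative to control samples, with values from duplicates. Fold changes are given on a log2 scale.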

[1] = compound: C/C(=N\NC(=O)C1=CC(=CC=C1)S(=O)(=O)N2CCOCC2)/C3=C(C=CC(=C3)Cl)O
Summary of the method: as §1

[2] = compound: C1=CC(=CC=C1C2=NC3=C(N2)C=C(C=C3)C(=O)N)OC4=CC=C(C=C4)Cl
Summary of the method: as §1

[3] = compound: C1=CC2=C(C=CC(=C2)/C=C\3/C(=O)NC(=NCC4=CC=CS4)S3)N=C1
Summary of the method: as §1

[4] = compound: C1=CC2=NC=CN=C2C=C1/C=C/3\C(=O)NC(=O)S3
Summary of the method: as §1

[5] = compound: C1=CC=C(C=C1)C2=NC(=C(N2)C3=CC=NC=C3)C4=CC(=C(C=C4)Cl)O
Summary of the method: as §1

[6] = compound: C1=CC=C2C(=C1)C3=NNC4=CC=CC(=C43)C2=O
Summary of the method: as §1

[7] = compound: C1CCN(C1)C(=O)NC2=CC=CC(=C2)NC3=NC=C(C(=N3)NCCC4=CN=CN4)Br
Summary of the method: as §1

[8] = compound: C1CN(CCC1(CC2=CC=C(C=C2)Cl)N)C3=NC=NC4=C3C=CN4
Summary of the method: as §1

[9] = compound: C1=CC(=C(C=C1Cl)C2=NC3=NC=CN=C3C(=N2)NC4=CC=NC=C4)F
Summary of the method: as §1

Row | Target | log2 fold change (erlotinib) | log2 fold change [1] | log2 fold change [2] | log2 fold change [3] | log2 fold change [4] | log2 fold change [5] | log2 fold change [6] | log2 fold change [7] | log2 fold change [8] | log2 fold change [9]
1 | HDAC10 (UniProt Q969S8) | inactive: 0.065 | inactive: -0.067 | inactive: 0.038 | inactive: -0.277 | inactive: 0.066 | inactive: 0.045 | inactive: -0.072 | active: -0.729 | inactive: 0.333 | 
2 | GTF3A (UniProt Q92664) | inactive: -0.048 | inactive: -0.117 | inactive: 0.116 | inactive: 0.157 | inactive: 0.004 |  | inactive: -0.115 | inactive: -0.019 | inactive: 0.174 | inactive: 0.095
3 | HDAC1 (UniProt Q13547) | active: 1.14 | inactive: 0.015 | inactive: -0.01 | inactive: 0.16 | inactive: 0.004 | inactive: 0.021 | inactive: -0.055 | inactive: -0.004 | inactive: -0.018 | inactive: 0.011
4 | GSS (UniProt P48637) | inactive: 0.044 | inactive: -0.001 | inactive: -0.01 | inactive: 0.019 | inactive: 0.002 | inactive: -0.025 | inactive: -0.023 | inactive: 0.025 | inactive: 0.03 | inactive: 0.018
5 | GSR (UniProt P00390) | inactive: -0.099 | inactive: 0.021 | inactive: 0.067 | inactive: 0.023 | inactive: 0.007 | inactive: -0.026 | inactive: -0.017 | inactive: 0.011 | inactive: 0.054 | inactive: 0.071
6 | GTF2H2 (UniProt Q13888) | inactive: 0.032 | inactive: 0.006 | inactive: -0.012 | inactive: 0.044 | inactive: 0.026 | inactive: 0 | inactive: -0.025 | inactive: -0.055 | inactive: 0.001 | inactive: -0.039
7 | GSTCD (UniProt Q8NEC7) | inactive: 0.039 | inactive: 0.094 | inactive: -0.033 | inactive: 0.086 | inactive: 0.017 | inactive: -0.041 | inactive: -0.028 | inactive: -0.056 | inactive: -0.018 | inactive: 0.013
8 | H6PD (UniProt O95479) | inactive: 0.018 | inactive: -0.078 | inactive: 0.032 | inactive: 0.068 |  | inactive: -0.025 | inactive: 0.032 | inactive: -0.034 | inactive: 0.01 | inactive: -0.096
9 | HACD3 (UniProt Q9P035) | inactive: 0.023 | inactive: 0.046 | inactive: 0.026 | inactive: 0.035 | inactive: 0.037 | inactive: -0.011 | inactive: -0.029 | inactive: 0.037 | inactive: 0.009 | inactive: 0.027
10 | HDAC7 isoform 5 (UniProt Q8WUI4) | inactive: 0.025 | inactive: 0.057 | inactive: 0.007 | inactive: -0.126 | inactive: -0.008 | inactive: -0.037 | inactive: -0.171 | inactive: -0.056 | inactive: 0.025 | inactive: -0.08
11 | HAUS6 (UniProt Q7Z4H7) | inactive: 0.029 | inactive: -0.097 | inactive: -0.117 | inactive: 0.2 | inactive: 0.054 | inactive: -0.07 | inactive: -0.055 | inactive: 0.168 | inactive: -0.091 | inactive: -0.307
12 | GTF2A1 (UniProt P52655) | inactive: -0.011 | inactive: -0.052 | inactive: -0.011 | inactive: -0.094 | inactive: 0.034 | inactive: -0.021 | inactive: -0.029 | inactive: -0.024 | inactive: 0.036 | inactive: 0.001
13 | GTSE1 (UniProt Q9NYZ3) | inactive: -0.018 | inactive: -0.116 | inactive: 0.112 | inactive: 0.1 | inactive: 0.109 | inactive: -0.04 | inactive: -0.008 | inactive: 0.068 | inactive: -0.023 | inactive: 0.004
14 | HEATR5B (UniProt Q9P2D3) | inactive: -0.009 | inactive: 0.059 | inactive: 0.025 | inactive: -0.067 | inactive: 0.004 | inactive: 0.007 | inactive: 0.05 | inactive: -0.026 | inactive: 0.043 | inactive: -0.128
15 | HEXB (UniProt P07686) | inactive: -0.004 | inactive: 0.002 | inactive: 0.003 | inactive: -0.002 | inactive: 0.017 | inactive: 0.017 | inactive: -0.01 | inactive: 0.008 | inactive: 0.026 | inactive: 0.01
16 | H1-3 (UniProt P16402) | inactive: -0.169 | inactive: -0.13 | inactive: 0.015 | inactive: -0.098 | inactive: -0.021 | inactive: 0.007 | inactive: 0.113 | inactive: -0.059 | inactive: -0.386 | inactive: -0.489

Pulled one by one from the list above (2):
Row | Target | log2 fold change (erlotinib) | log2 fold change [1] | log2 fold change [2] | log2 fold change [3] | log2 fold change [4] | log2 fold change [5] | log2 fold change [6] | log2 fold change [7] | log2 fold change [8] | log2 fold change [9]
15 | HEXB (UniProt P07686) | inactive: -0.004 | inactive: 0.002 | inactive: 0.003 | inactive: -0.002 | inactive: 0.017 | inactive: 0.017 | inactive: -0.01 | inactive: 0.008 | inactive: 0.026 | inactive: 0.01
12 | GTF2A1 (UniProt P52655) | inactive: -0.011 | inactive: -0.052 | inactive: -0.011 | inactive: -0.094 | inactive: 0.034 | inactive: -0.021 | inactive: -0.029 | inactive: -0.024 | inactive: 0.036 | inactive: 0.001

Following part:

Row | Target | log2 fold change (erlotinib) | log2 fold change [1] | log2 fold change [2] | log2 fold change [3] | log2 fold change [4] | log2 fold change [5] | log2 fold change [6] | log2 fold change [7] | log2 fold change [8] | log2 fold change [9]
17 | GSTK1 (UniProt Q9Y2Q3) | inactive: -0.041 | inactive: 0.01 | inactive: 0.025 | inactive: 0.061 | inactive: 0.021 | inactive: 0.037 | inactive: 0.065 | inactive: -0.023 | inactive: 0.034 | inactive: 0.128
18 | GYPA (UniProt P02724) | inactive: -0.057 | inactive: 0.036 | inactive: 0.035 | inactive: -0.037 | inactive: -0.139 | inactive: -0.11 | inactive: -0.054 | inactive: -0.011 | inactive: 0.098 | inactive: 0.08
19 | GSKIP (UniProt Q9P0R6) | inactive: 0.022 | inactive: -0.014 | inactive: 0.019 | inactive: 0.049 | inactive: 0.083 | inactive: 0.228 | inactive: -0.015 | inactive: -0.01 | inactive: -0.04 | 
20 | GTF3C1 (UniProt Q12789) | inactive: 0.336 | inactive: -0.423 | inactive: -0.018 | inactive: 0.17 | inactive: -0.007 | inactive: -0.436 | inactive: 0.007 | inactive: -0.138 | inactive: 0.035 | inactive: -0.018
21 | HBG1 (UniProt P69891) | inactive: -0.026 | inactive: 0.015 | inactive: 0.039 | inactive: 0.077 | inactive: 0.009 | inactive: 0.088 | inactive: -0.009 | inactive: -0.03 | inactive: 0.033 | inactive: 0.184
22 | HECTD3 (UniProt Q5T447) | inactive: 0.197 | inactive: -0.065 | inactive: 0.061 | inactive: 0.028 | inactive: -0.035 | inactive: -0.015 | inactive: -0.065 | inactive: 0.007 | inactive: 0.019 | inactive: -0.116
23 | GSTM5 (UniProt P46439) | inactive: -0.062 | inactive: 0.076 | inactive: 0.024 | inactive: 0.009 | inactive: 0.146 |  | inactive: 0.009 | inactive: 0.002 | inactive: -0.092 | inactive: 0.084
24 | HBZ (UniProt P02008) | inactive: -0.013 | inactive: 0.077 | inactive: 0.042 | inactive: 0.143 | inactive: 0.006 | inactive: 0.118 | inactive: 0.017 | inactive: -0.034 | inactive: 0.043 | inactive: 0.252
25 | HERC4 (UniProt Q5GLZ8) | inactive: 0.018 | inactive: 0.053 | inactive: -0.012 | inactive: 0.019 | inactive: 0.025 | inactive: 0.007 | inactive: 0.012 | inactive: 0.016 | inactive: 0.049 | inactive: 0.06
26 | HARS2 (UniProt P49590) | inactive: -0.053 | inactive: -0.004 | inactive: 0.014 | inactive: 0.003 | inactive: 0.007 | inactive: 0.013 | inactive: -0.037 | inactive: -0.015 | inactive: -0.037 | inactive: 0.03
27 | HELZ (UniProt P42694) | inactive: 0.094 | inactive: 0.283 | inactive: -0.126 | inactive: 0.068 | inactive: 0.109 | inactive: 0.202 | inactive: -0.047 |  |  | 
28 | HAUS3 (UniProt Q68CZ6) | inactive: -0.014 | inactive: 0.117 | inactive: 0.122 | inactive: -0.108 |  | inactive: -0.017 | inactive: 0.042 | inactive: 0.025 | inactive: -0.185 | inactive: -0.539
29 | H2AFY (UniProt O75367) | inactive: -0.027 |  | inactive: -0.028 |  | inactive: 0.102 | inactive: 0.015 |  | inactive: 0.269 | inactive: -0.113 | inactive: -0.366
30 | GTF3C3 (UniProt Q9Y5Q9) | inactive: 0.005 |  | inactive: 0.024 |  | inactive: 0.067 |  |  | inactive: -0.1 | inactive: 0.037 | 
31 | HEXIM2 (UniProt Q96MH2) |  |  |  |  |  |  |  |  |  | inactive: 0.175

A few values from the results shown:
GYPA (UniProt P02724) | log2 fold change (erlotinib): inactive: -0.057
HBG1 (UniProt P69891) | log2 fold change [9]: inactive: 0.184
